Measurements: the supplement of paper PMC6411743
± gives the standard deviation of the averaged measurements. The list shows a part of the results.

By UniProt entry, the sequences of proteins in these tests, tags left out. Where a name states a change or a piece, a line headed by the entry shows the natural chain unless it says otherwise.
UniProt Q13332: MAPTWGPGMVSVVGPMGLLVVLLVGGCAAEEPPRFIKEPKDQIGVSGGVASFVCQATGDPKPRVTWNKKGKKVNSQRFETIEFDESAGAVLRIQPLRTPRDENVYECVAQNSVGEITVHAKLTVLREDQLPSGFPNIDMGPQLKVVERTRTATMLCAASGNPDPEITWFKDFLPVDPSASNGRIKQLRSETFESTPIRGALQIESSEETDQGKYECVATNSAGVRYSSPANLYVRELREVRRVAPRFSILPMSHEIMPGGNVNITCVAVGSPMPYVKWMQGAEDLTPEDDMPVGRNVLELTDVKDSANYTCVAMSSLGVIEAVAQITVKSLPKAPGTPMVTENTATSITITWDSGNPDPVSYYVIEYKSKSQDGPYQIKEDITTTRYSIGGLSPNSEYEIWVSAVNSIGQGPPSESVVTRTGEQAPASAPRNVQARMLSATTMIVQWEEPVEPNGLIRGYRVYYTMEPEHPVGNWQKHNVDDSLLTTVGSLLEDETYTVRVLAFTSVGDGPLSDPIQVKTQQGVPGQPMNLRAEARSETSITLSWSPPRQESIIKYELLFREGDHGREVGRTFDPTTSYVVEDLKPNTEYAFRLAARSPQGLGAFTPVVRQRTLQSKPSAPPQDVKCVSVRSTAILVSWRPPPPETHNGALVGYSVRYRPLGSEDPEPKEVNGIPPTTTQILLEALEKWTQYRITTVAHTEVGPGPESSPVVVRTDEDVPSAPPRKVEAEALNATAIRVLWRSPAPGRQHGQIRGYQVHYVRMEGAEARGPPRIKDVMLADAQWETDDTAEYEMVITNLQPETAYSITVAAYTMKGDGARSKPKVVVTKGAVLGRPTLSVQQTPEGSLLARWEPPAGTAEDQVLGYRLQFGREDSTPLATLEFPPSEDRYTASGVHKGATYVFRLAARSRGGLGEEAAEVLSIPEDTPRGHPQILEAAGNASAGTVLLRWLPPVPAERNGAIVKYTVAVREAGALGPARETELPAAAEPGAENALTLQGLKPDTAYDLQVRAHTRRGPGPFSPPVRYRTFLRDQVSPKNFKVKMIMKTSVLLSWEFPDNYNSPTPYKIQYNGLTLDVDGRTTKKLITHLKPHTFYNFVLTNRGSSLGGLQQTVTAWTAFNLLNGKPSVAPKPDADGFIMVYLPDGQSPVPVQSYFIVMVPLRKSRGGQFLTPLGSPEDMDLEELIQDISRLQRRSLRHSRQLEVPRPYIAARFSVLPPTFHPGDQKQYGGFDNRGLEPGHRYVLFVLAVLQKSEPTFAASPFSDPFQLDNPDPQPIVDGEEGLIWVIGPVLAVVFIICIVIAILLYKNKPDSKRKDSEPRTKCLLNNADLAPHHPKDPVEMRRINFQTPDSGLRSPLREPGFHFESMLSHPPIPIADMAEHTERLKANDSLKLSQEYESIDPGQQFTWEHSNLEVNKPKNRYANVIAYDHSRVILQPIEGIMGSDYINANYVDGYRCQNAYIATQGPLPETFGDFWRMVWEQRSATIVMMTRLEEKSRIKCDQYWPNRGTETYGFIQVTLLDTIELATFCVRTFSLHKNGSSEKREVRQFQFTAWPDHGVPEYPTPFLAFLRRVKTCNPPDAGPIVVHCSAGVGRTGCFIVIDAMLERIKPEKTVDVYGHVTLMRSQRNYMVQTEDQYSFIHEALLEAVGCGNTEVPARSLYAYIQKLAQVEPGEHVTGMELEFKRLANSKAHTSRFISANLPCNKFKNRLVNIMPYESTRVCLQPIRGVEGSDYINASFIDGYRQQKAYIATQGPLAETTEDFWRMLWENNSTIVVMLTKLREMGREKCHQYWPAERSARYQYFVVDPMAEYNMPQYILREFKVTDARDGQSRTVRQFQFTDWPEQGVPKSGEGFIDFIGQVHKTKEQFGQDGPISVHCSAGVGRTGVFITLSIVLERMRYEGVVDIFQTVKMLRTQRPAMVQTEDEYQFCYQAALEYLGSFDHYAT
UniProt Q01415: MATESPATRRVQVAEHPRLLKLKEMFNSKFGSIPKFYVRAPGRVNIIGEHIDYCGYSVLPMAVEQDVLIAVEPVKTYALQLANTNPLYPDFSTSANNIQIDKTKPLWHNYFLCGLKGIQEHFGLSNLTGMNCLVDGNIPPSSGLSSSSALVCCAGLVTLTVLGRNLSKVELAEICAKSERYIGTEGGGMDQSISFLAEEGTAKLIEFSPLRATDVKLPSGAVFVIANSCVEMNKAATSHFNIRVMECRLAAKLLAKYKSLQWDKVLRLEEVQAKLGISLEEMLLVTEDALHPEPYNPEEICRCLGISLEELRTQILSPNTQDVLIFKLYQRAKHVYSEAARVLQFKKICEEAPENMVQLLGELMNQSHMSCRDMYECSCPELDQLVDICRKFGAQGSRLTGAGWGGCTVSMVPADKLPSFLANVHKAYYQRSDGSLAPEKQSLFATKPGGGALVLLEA
UniProt Q01167: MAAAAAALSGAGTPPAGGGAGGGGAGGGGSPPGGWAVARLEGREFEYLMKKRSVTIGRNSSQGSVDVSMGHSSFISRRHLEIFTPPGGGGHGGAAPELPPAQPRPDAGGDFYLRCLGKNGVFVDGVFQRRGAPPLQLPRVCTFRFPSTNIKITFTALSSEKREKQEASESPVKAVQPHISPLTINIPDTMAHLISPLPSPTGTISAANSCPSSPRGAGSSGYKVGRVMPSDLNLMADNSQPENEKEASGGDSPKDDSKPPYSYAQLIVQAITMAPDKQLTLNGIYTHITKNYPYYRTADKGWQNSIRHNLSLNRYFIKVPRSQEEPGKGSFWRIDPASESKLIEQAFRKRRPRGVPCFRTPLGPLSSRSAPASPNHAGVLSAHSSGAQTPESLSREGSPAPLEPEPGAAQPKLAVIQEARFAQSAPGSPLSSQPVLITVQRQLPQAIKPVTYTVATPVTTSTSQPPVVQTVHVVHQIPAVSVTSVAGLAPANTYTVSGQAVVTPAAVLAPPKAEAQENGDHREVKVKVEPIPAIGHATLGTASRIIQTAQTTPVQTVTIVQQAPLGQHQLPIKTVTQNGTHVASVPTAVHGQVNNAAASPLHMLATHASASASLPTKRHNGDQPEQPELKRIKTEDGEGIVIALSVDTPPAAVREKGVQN
UniProt Q0VDF9: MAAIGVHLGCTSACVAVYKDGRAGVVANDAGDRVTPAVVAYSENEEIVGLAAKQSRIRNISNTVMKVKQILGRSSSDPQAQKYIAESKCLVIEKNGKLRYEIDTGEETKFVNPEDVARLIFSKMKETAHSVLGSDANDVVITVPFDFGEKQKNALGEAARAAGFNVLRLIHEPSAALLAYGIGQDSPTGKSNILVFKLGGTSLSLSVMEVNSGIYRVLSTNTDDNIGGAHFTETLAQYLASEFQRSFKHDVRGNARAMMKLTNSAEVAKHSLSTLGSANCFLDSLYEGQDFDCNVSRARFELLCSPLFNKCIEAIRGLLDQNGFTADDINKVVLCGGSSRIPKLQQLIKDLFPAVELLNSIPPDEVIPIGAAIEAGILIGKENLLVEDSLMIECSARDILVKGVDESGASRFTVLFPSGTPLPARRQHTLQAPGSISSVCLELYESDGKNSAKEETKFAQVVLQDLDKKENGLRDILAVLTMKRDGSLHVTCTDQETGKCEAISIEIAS
UniProt Q12972: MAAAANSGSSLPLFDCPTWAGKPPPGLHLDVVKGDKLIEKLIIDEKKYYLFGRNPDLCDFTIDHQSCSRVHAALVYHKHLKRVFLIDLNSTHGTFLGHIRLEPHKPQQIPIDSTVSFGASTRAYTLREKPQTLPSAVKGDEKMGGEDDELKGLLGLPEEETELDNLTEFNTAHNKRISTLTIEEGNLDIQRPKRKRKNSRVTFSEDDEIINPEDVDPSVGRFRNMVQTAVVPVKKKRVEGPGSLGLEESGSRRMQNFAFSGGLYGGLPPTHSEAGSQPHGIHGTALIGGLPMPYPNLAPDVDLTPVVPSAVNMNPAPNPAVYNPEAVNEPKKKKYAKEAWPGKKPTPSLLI
UniProt Q14191, whole entry: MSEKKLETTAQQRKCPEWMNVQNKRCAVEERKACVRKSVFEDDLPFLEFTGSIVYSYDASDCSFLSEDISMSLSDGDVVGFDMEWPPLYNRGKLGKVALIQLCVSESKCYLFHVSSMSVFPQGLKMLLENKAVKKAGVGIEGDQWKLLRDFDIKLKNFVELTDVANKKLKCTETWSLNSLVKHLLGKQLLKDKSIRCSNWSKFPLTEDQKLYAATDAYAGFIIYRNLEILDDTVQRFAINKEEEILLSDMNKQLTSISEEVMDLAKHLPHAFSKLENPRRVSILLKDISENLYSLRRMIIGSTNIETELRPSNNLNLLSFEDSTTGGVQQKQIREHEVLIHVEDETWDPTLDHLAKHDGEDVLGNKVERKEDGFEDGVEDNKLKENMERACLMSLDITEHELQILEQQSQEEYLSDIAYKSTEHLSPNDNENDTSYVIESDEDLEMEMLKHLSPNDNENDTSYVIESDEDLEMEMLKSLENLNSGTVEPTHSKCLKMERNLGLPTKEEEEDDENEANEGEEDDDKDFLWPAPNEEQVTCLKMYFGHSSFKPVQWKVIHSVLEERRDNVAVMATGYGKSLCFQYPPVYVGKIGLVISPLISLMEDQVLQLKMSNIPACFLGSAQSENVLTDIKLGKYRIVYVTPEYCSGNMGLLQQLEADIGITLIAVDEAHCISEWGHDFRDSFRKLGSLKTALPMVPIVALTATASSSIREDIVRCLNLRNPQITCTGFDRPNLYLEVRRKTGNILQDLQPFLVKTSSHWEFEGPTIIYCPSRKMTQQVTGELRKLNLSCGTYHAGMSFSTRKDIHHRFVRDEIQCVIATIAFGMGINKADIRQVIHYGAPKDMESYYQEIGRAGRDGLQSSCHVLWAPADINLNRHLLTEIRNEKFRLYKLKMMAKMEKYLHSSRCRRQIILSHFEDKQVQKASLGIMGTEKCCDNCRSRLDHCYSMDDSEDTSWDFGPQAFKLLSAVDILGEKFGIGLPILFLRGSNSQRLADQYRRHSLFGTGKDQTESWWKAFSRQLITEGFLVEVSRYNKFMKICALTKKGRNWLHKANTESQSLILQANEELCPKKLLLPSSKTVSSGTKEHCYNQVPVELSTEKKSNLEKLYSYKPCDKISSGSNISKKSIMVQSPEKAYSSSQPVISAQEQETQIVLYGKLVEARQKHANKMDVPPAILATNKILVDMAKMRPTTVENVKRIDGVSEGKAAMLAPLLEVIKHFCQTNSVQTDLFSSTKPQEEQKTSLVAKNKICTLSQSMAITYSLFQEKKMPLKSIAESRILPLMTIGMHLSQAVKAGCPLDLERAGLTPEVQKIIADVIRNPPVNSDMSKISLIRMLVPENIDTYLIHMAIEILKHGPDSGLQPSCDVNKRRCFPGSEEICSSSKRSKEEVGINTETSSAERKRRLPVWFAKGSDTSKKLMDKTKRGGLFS
UniProt Q00765: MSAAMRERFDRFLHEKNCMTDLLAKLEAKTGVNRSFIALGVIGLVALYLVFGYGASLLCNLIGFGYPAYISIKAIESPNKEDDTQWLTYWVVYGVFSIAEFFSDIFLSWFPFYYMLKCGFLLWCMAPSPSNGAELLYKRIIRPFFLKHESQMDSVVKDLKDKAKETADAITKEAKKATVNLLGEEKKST
UniProt Q14289, whole entry, looked up: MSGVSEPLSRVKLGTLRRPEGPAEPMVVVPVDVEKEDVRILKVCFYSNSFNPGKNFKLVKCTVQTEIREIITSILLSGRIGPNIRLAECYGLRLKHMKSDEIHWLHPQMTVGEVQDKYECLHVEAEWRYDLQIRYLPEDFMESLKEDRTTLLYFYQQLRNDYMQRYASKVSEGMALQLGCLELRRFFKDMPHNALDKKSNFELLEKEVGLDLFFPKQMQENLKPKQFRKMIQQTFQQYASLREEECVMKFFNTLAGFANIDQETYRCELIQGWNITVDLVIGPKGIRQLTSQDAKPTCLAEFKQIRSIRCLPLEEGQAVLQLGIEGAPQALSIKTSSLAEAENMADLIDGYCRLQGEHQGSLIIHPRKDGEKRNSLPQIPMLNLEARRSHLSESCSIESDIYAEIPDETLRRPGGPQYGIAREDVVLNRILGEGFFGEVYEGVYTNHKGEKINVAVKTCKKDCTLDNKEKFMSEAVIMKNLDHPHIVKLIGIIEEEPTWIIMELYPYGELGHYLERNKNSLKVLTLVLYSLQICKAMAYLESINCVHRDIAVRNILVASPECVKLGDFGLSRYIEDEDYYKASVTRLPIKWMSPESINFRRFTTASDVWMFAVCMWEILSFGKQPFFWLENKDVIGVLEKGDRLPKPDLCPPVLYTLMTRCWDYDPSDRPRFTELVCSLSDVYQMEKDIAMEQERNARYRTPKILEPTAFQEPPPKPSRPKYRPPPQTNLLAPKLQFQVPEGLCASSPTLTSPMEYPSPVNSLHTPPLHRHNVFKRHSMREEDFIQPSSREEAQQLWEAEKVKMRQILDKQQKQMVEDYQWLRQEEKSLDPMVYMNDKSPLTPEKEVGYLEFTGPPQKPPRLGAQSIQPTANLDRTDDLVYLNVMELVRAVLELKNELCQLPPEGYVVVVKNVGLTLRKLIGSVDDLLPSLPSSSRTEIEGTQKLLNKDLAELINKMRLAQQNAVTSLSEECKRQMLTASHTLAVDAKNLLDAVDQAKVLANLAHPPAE

Compound: Nc1nc2c(ncn2[C@@H]2O[C@H](COP(=O)(O)OP(=O)(O)OP(=O)(O)O)[C@@H](O)[C@H]2O)c(=O)[nH]1 [guanosine triphosphate]
Assay: NP40-soluble protein abundance relative to vehicle (solubility fold change) (ratio); higher = more soluble protein in presence of GTP
Method in brief: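 Data come from three independent experiments in which Dounce-homogenised Jurkat crude lysate was treated at eight concentrations from 0.1 to 10 mM. Treatment ran 10 min at room temperature and then 3 min at 37 °C, after which 0.8% NP40 and benzonase were added for 60 min at 4 °C before ultracentrifugation. The supernatant underwent TMT labelling and LC-MS/MS, and vsn-normalised intensities were expressed as fold change against the detergent-processed vehicle in each replicate.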

Target	NP40-soluble protein abundance (concentration: 0.1mM)	NP40-soluble protein abundance (concentration: 0.5mM)	NP40-soluble protein abundance (concentration: 1mM)	NP40-soluble protein abundance (concentration: 2mM)	NP40-soluble protein abundance (concentration: 4mM)	NP40-soluble protein abundance (concentration: 6mM)	NP40-soluble protein abundance (concentration: 8mM)	NP40-soluble protein abundance (concentration: 10mM)
PRDX4 (UniProt Q13162)	1.03 ± 0.075	1.08 ± 0.1	0.966 ± 0.069	0.995 ± 0.074	0.983 ± 0.15	0.992 ± 0.089	0.943 ± 0.062	0.943 ± 0.044
UniProt Q13332 and related entries	0.975 ± 0.13	0.979 ± 0.12	0.984 ± 0.13	0.983 ± 0.081	0.999 ± 0.087	1.01 ± 0.19	0.985 ± 0.08	0.957 ± 0.021
GALK2 (UniProt Q01415)	1.04 ± 0.06	0.915 ± 0.073	0.955 ± 0.028	1.08 ± 0.17	0.989 ± 0.086	0.869 ± 0.028	0.843 ± 0.076	0.883 ± 0.086
UniProt Q14240 and related entries	0.978 ± 0.071	1.03 ± 0.087	0.964 ± 0.06	0.972 ± 0.053	0.995 ± 0.068	0.998 ± 0.1	0.978 ± 0.089	0.964 ± 0.083
UniProt Q05932 and related entries	1.17 ± 0.17	1.14 ± 0.17	1.06 ± 0.05	1.15 ± 0.13	1.16 ± 0.033	1.13 ± 0.13	1.07 ± 0.14	1.02 ± 0.029
SSBP1 (UniProt Q04837)	0.942 ± 0.04	1 ± 0.048	0.918 ± 0.045	0.904 ± 0.016	0.856 ± 0.029	0.891 ± 0.022	0.867 ± 0.044	0.862 ± 0.032
FOXK2 (UniProt Q01167)	0.954 ± 0.045	0.977 ± 0.06	0.979 ± 0.03	0.959 ± 0.039	0.985 ± 0.039	0.979 ± 0.057	1 ± 0.093	0.993 ± 0.067
HSPA14 (UniProt Q0VDF9)	1.02 ± 0.031	0.988 ± 0.059	0.954 ± 0.04	0.929 ± 0.05	0.94 ± 0.03	0.908 ± 0.029	0.947 ± 0.031	0.902 ± 0.048
EIF4EBP2 (UniProt Q13542)	0.887 ± 0.05	0.866 ± 0.031	0.9006 ± 0.0047	0.822 ± 0.043	0.867 ± 0.11	0.896 ± 0.096	0.942 ± 0.11	0.866 ± 0.088
UniProt Q13625 and related entries	0.939 ± 0.058	0.941 ± 0.08	0.918 ± 0.059	0.93 ± 0.12	0.924 ± 0.072	0.923 ± 0.1	0.967 ± 0.049	0.998 ± 0.057
PSMD2 (UniProt Q13200)	1.03 ± 0.077	1.1 ± 0.11	1.01 ± 0.13	1.08 ± 0.19	1.06 ± 0.17	1.08 ± 0.2	1.04 ± 0.16	1 ± 0.15
UniProt Q12872 and related entries	0.979 ± 0.031	1.04 ± 0.027	1.17 ± 0.014	1.24 ± 0.024	1.42 ± 0.016	1.52 ± 0.068	1.7 ± 0.13	1.78 ± 0.13
UniProt Q01970 and related entries	1.04 ± 0.011	1.05 ± 0.035	1.01 ± 0.066	1.03 ± 0.031	1.02 ± 0.026	0.997 ± 0.035	0.981 ± 0.052	0.981 ± 0.043
GALNT2 (UniProt Q10471)	1.02 ± 0.025	0.97 ± 0.021	0.9568 ± 0.0034	0.917 ± 0.014	0.928 ± 0.022	0.901 ± 0.012	0.927 ± 0.046	0.861 ± 0.052
UniProt Q13905 and related entries	0.998 ± 0.038	0.938 ± 0.074	0.988 ± 0.079	0.98 ± 0.085	0.974 ± 0.08	0.906 ± 0.069	0.94 ± 0.042	0.948 ± 0.013
PPP1R8 (UniProt Q12972)	0.979 ± 0.062	0.969 ± 0.074	0.945 ± 0.098	0.902 ± 0.063	0.929 ± 0.11	0.921 ± 0.12	0.929 ± 0.093	0.921 ± 0.075
UniProt Q14139 and related entries	1.04 ± 0.056	1.02 ± 0.027	0.98 ± 0.022	0.975 ± 0.05	1 ± 0.046	0.948 ± 0.047	0.975 ± 0.043	0.935 ± 0.07
DSG2 (UniProt Q14126)	1.03 ± 0.024	0.989 ± 0.032	1.04 ± 0.11	0.972 ± 0.089	0.987 ± 0.11	1.02 ± 0.14	1.03 ± 0.14	1 ± 0.14
UniProt Q13428 and related entries	0.975 ± 0.096	1.01 ± 0.085	1.09 ± 0.12	1.09 ± 0.15	1.11 ± 0.16	1.13 ± 0.14	1.17 ± 0.17	1.23 ± 0.23
WRN (UniProt Q14191)	1.04 ± 0.071	1.04 ± 0.08	1.08 ± 0.1	1.1 ± 0.063	1.08 ± 0.079	1.09 ± 0.056	1.1 ± 0.084	1.06 ± 0.044
UniProt Q13416	0.988 ± 0.035	0.963 ± 0.026	1.03 ± 0.015	0.989 ± 0.033	1.03 ± 0.017	1.02 ± 0.032	1.1 ± 0.026	1.07 ± 0.024
PIN1 (UniProt Q13526)	0.888 ± 0.024	0.869 ± 0.025	0.939 ± 0.046	0.91 ± 0.059	0.88 ± 0.079	0.886 ± 0.07	0.887 ± 0.05	0.912 ± 0.054
REEP5 (UniProt Q00765)	0.863 ± 0.048	0.84 ± 0.09	0.9 ± 0.098	0.866 ± 0.1	0.88 ± 0.12	0.817 ± 0.077	0.819 ± 0.11	0.898 ± 0.12
GABPA (UniProt Q06546)	1.02 ± 0.033	0.982 ± 0.018	0.921 ± 0.052	0.914 ± 0.088	0.868 ± 0.066	0.889 ± 0.043	0.871 ± 0.058	0.83 ± 0.098
UniProt Q12981 and related entries	0.963 ± 0.018	0.9399 ± 0.0075	0.987 ± 0.04	0.98 ± 0.043	0.964 ± 0.046	0.944 ± 0.03	0.929 ± 0.011	0.936 ± 0.043
SP4 (UniProt Q02446)	0.964 ± 0.054	0.987 ± 0.09	0.961 ± 0.061	0.99 ± 0.042	0.944 ± 0.026	1.03 ± 0.046	1.02 ± 0.13	1.03 ± 0.044
UniProt Q06330 and related entries	1.11 ± 0.059	1.04 ± 0.058	1.04 ± 0.06	1.01 ± 0.06	1.03 ± 0.028	1.01 ± 0.056	1.06 ± 0.029	0.946 ± 0.082
UniProt Q14289-2|Q14289	0.996 ± 0.021	1.02 ± 0.013	0.967 ± 0.034	0.976 ± 0.059	0.949 ± 0.041	0.943 ± 0.051	0.95 ± 0.061	0.915 ± 0.06
UNC119 (UniProt Q13432)	1 ± 0.098	1.02 ± 0.084	1.06 ± 0.12	1 ± 0.081	0.991 ± 0.073	0.986 ± 0.06	0.996 ± 0.15	0.961 ± 0.096
UniProt Q06210 and related entries	1.02 ± 0.04	1.05 ± 0.092	0.962 ± 0.034	0.991 ± 0.086	0.96 ± 0.052	0.977 ± 0.069	0.913 ± 0.01	0.901 ± 0.061

As entered above:
REEP5 (UniProt Q00765) | NP40-soluble protein abundance (concentration: 0.5mM): 0.84 ± 0.09
DSG2 (UniProt Q14126) | NP40-soluble protein abundance (concentration: 0.5mM): 0.989 ± 0.032
